Source: US20260022160A1 (AFFYXELL THERAPEUTICS, published 2026)
No constants are given. Whether binding was seen depends on the method and setting. Some binding calls cover weakened binding; strength is not graded here.

B1: stefin A protein variant clone 284 (designed binder)
chain: MIPGGLSEAKPATPEIQEIVDKVKPQLEEKTGETYGKLEAVQYKTQVVYQDYDSATHGTNYYIKVRAGDNKYMHLKVFKSLYQYRNPIDKEDLVLTGYQVDKNKDDELTGF
B2: stefin A protein variant clone 286 (designed binder)
chain: MIPGGLSEAKPATPEIQEIVDKVKPQLEEKTGETYGKLEAVQYKTQVVSWGKVSNELGTNYYIKVRAGDNKYMHLKVFKSLIEYQSPALYEDLVLTGYQVDKNKDDELTGF
B3: stefin A protein variant clone 287 (designed binder)
chain: MIPGGLSEAKPATPEIQEIVDKVKPQLEEKTGETYGKLEAVQYKTQVVLEDEWWSILGTNYYIKVRAGDNKYMHLKVFKSLPDAPAYSKSEDLVLTGYQVDKNKDDELTGF
B4: stefin A protein variant clone 288 (designed binder)
chain: MIPGGLSEAKPATPEIQEIVDKVKPQLEEKTGETYGKLEAVQYKTQVVYYKLVTWWRGTNYYIKVRAGDNKYMHLKVFKSLPDLNYEVTLEDLVLTGYQVDKNKDDELTGF
B5: stefin A protein variant clone 289 (designed binder)
chain: MIPGGLSEAKPATPEIQEIVDKVKPQLEEKTGETYGKLEAVQYKTQVVAWVKEHNLIGTNYYIKVRAGDNKYMHLKVFKSLYDQNQWSPHEDLVLTGYQVDKNKDDELTGF
B6: stefin A protein variant clone 290 (designed binder)
chain: MIPGGLSEAKPATPEIQEIVDKVKPQLEEKTGETYGKLEAVQYKTQVVQEYLWKQYIGTNYYIKVRAGDNKYMHLKVFKSLRWQYRHPQTEDLVLTGYQVDKNKDDELTGF
B7: stefin A protein variant clone 291 (designed binder)
chain: MIPGGLSEAKPATPEIQEIVDKVKPQLEEKTGETYGKLEAVQYKTQVVFNKDLFLGWGTNYYIKVRAGDNKYMHLKVFKSLRFSAGEEWEEDLVLTGYQVDKNKDDELTGF
B8: stefin A protein variant clone 292 (designed binder)
chain: MIPGGLSEAKPATPEIQEIVDKVKPQLEEKTGETYGKLEAVQYKTQVVHFGIRYAHVGTNYYIKVRAGDNKYMHLKVFKSLDYPRHHQDQEDLVLTGYQVDKNKDDELTGF
B9: stefin A protein variant clone 293 (designed binder)
chain: MIPGGLSEAKPATPEIQEIVDKVKPQLEEKTGETYGKLEAVQYKTQVVWYAWQEGWQGTNYYIKVRAGDNKYMHLKVFKSLFRKKWAQLWEDLVLTGYQVDKNKDDELTGF
B10: stefin A protein variant clone 294 (designed binder)
chain: MIPGGLSEAKPATPEIQEIVDKVKPQLEEKTGETYGKLEAVQYKTQVVGNAAWGSFAGTNYYIKVRAGDNKYMHLKVFKSLPFFYRKDNPEDLVLTGYQVDKNKDDELTGF
B11: stefin A protein variant clone 295 (designed binder)
chain: MIPGGLSEAKPATPEIQEIVDKVKPQLEEKTGETYGKLEAVQYKTQVVREDLDLFYTGTNYYIKVRAGDNKYMHLKVFKSLEFILQPWWYEDLVLTGYQVDKNKDDELTGF

Each binder was assayed against T1, human CD40L (human, UniProt P29965 113-261, limits assumed) (assay: ELISA, bacterial lysate on plate-bound human CD40L, anti-Myc tag detection).
T1 sequence (looked up): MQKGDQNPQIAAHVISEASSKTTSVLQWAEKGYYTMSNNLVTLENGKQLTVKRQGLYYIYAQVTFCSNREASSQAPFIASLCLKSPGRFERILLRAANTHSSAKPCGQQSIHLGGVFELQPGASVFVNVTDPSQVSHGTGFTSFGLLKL

binding, binds:
B1, B2, B3, B4, B5, B6, B7, B8, B9, B10, B11
